Experimental data from paper PMC5996148.
Some of the results follow.

What was measured:
Assay in all cases: protein microarray (ProtoArray v5.0), streptavidin-Alexa Fluor 647
Settings in all cases: 3'-biotin; 20 mM Tris (pH 7.5), 5 mM MgCl2, 100 mM KCl, 0.1% Tween-20, A/T-rich and random oligonucleotide blockers; temperature not stated; high values mean tight binding
GBP6 (human) = system: GBP6 (human)
GCA (human) = system: GCA (human)
GCLM (human) = system: GCLM (human)
GDPD5 (human) = system: GDPD5 (human)
GGA2 (human) = system: GGA2 (human)
GIF (human) = system: GIF (human)
GIMAP6 (human) = system: GIMAP6 (human)
GLYATL2 (human) = system: GLYATL2 (human)
GLYCTK (human) = system: GLYCTK (human)
GMFB (human) = system: GMFB (human)

Work on “GGGGACAGGGGTATGGGGAGGGG [G4-3 biotinylated (CtG)]” yielded a binding signal (GBP6 (human)) of -0.327 z-score, a binding signal (GCA (human)) of -0.332 z-score and a binding signal (GCLM (human)) of -0.319 z-score. For the same sequence, the binding signal (GDPD5 (human)) was -0.326 z-score, the binding signal (GGA2 (human)) was -0.336 z-score and the binding signal (GIF (human)) was -0.324 z-score. For the same sequence, the binding signal (GIMAP6 (human)) was -0.337 z-score, the binding signal (GLYATL2 (human)) was -0.317 z-score and the binding signal (GLYCTK (human)) was -0.318 z-score. The binding signal (GMFB (human)) was -0.321 z-score.
